Laboratory results from the supplement of paper PMC10849652.
The other results are listed elsewhere or left out.

By UniProt entry, the sequences of proteins in these tests, tags left out. Where a name states a change or a piece, a line headed by the entry shows the natural chain unless it says otherwise.
UniProt P00742, whole entry, looked up: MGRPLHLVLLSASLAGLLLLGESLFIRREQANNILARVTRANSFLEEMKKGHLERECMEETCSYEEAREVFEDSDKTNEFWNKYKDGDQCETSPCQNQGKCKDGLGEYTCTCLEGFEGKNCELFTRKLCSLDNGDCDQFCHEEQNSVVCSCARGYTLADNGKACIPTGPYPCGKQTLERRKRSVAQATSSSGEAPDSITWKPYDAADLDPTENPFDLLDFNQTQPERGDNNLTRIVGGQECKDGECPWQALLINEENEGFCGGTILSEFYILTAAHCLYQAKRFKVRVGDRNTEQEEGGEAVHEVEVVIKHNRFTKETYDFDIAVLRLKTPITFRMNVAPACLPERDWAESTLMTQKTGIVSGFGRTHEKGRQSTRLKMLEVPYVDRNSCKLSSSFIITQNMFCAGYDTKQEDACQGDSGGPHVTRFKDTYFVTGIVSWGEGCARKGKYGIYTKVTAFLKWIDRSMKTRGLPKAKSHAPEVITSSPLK
UniProt P58107: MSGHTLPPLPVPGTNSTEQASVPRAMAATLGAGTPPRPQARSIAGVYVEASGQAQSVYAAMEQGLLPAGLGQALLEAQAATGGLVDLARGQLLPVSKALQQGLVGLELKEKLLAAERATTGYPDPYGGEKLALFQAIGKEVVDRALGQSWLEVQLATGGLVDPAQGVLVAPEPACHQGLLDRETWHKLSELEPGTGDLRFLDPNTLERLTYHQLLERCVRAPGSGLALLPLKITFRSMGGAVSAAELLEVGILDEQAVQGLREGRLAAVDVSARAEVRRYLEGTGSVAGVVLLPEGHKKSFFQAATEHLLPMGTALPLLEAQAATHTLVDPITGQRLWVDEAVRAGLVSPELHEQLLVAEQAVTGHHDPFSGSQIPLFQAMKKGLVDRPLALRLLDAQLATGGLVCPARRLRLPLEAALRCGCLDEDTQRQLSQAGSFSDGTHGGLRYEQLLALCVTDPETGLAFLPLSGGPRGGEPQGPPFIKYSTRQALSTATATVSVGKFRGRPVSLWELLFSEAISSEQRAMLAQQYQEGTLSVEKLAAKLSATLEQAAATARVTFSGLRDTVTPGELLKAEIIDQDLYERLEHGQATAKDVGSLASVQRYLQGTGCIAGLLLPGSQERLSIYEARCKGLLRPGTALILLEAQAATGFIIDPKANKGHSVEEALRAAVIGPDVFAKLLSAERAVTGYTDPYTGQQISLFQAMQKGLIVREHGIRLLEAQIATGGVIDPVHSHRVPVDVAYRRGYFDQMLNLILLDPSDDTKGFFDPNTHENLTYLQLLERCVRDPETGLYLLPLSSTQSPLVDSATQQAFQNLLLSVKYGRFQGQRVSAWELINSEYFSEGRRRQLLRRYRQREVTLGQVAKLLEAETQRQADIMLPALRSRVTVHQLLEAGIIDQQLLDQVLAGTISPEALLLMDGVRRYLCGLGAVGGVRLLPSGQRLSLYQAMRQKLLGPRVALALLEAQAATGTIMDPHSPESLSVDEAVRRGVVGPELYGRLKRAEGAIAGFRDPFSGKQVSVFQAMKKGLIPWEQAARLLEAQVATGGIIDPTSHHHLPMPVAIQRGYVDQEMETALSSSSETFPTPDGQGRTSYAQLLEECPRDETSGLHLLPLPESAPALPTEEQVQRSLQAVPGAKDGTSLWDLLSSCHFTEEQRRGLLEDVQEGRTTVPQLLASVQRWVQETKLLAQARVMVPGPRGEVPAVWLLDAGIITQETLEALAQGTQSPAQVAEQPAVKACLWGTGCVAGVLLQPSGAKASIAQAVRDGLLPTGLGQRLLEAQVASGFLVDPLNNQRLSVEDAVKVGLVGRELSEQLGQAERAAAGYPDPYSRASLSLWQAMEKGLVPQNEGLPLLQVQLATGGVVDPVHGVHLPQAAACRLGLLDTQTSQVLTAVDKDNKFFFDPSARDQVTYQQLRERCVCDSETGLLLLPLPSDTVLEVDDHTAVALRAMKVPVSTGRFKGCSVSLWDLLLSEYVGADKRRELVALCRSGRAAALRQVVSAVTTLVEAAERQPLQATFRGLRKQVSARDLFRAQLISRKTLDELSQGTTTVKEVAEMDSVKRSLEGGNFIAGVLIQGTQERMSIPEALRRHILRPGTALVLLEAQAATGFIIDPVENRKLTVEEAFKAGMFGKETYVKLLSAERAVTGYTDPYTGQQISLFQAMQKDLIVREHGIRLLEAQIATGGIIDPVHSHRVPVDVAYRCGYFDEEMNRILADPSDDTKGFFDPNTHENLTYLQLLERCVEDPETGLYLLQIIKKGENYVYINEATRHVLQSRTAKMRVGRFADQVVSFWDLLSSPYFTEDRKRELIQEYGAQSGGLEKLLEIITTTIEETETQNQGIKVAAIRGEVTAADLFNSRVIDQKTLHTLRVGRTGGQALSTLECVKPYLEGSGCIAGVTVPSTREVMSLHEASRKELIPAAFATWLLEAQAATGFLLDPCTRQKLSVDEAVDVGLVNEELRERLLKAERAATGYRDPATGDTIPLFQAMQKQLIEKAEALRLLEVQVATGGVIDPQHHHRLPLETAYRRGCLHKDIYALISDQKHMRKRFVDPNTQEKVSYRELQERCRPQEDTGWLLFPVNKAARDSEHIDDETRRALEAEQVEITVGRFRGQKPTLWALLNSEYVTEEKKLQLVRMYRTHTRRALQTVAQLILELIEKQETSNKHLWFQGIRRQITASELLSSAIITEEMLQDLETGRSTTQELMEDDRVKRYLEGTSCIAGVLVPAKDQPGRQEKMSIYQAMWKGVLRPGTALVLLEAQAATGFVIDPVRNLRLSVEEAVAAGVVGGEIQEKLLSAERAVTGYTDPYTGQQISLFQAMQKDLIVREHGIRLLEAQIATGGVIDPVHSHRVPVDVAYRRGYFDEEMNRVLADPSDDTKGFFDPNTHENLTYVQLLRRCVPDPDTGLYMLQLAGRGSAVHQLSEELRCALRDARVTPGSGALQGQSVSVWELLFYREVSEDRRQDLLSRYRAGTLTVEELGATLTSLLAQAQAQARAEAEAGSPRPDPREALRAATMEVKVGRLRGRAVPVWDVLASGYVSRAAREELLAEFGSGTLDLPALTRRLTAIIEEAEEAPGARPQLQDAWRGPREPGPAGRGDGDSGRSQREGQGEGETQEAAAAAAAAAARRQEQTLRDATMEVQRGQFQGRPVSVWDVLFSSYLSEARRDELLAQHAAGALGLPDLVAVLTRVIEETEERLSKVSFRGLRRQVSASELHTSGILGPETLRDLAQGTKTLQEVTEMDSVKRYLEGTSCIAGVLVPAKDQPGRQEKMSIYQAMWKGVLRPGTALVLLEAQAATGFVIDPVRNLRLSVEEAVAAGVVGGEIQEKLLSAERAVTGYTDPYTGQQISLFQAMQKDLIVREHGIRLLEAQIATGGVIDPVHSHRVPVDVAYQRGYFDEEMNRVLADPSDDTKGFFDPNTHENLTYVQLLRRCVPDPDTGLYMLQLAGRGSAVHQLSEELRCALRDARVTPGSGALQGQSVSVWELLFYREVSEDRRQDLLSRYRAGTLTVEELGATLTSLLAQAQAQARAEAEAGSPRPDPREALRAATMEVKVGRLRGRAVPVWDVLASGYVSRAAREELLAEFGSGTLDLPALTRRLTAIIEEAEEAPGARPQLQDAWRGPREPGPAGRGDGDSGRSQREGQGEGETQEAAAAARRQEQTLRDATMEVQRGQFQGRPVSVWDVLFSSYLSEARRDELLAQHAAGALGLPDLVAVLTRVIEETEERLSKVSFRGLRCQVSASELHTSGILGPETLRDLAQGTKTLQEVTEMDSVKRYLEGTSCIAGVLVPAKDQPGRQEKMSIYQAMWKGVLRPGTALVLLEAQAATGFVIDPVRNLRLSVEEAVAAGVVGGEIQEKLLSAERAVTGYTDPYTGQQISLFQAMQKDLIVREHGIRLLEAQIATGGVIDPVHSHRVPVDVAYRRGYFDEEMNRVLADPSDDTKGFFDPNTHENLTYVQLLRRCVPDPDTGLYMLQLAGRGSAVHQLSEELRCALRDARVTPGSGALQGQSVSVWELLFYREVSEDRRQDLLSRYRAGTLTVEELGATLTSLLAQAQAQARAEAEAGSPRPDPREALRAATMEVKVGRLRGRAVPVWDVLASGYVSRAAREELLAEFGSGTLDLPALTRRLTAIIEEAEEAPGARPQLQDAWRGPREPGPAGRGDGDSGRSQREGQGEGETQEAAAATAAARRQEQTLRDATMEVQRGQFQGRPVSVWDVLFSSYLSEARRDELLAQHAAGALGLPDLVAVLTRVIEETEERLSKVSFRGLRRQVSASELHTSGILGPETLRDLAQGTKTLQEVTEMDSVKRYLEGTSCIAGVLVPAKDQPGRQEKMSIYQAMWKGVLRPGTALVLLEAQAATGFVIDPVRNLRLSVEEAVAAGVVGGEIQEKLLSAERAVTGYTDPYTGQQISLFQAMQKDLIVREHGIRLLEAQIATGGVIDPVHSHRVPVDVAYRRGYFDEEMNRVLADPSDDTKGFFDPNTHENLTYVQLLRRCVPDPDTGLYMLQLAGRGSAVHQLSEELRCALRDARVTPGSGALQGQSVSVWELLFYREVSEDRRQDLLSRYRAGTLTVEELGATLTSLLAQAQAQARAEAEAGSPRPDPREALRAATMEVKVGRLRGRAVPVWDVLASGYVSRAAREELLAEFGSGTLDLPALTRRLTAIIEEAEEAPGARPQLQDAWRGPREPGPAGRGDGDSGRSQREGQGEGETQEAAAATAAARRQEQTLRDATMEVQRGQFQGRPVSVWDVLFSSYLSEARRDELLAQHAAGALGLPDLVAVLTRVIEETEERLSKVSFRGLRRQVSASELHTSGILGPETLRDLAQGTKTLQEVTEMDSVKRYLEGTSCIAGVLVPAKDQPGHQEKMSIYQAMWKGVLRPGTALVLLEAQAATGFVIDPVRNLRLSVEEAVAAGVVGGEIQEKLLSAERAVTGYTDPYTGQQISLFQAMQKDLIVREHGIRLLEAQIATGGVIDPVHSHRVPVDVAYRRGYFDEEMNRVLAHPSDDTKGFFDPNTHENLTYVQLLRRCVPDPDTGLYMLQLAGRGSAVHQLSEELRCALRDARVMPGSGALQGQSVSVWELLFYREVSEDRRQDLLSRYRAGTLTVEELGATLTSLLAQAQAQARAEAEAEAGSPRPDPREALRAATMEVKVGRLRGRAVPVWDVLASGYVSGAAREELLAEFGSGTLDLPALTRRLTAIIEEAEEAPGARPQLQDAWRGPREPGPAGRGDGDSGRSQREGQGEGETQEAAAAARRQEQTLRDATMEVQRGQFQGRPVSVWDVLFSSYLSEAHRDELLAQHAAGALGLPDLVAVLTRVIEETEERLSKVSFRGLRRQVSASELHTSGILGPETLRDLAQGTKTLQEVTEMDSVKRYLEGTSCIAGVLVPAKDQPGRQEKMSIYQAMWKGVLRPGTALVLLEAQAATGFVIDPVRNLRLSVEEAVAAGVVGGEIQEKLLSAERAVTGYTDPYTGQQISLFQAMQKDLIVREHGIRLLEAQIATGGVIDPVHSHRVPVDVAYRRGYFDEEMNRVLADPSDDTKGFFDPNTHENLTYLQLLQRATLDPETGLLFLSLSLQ
UniProt Q6P2I3: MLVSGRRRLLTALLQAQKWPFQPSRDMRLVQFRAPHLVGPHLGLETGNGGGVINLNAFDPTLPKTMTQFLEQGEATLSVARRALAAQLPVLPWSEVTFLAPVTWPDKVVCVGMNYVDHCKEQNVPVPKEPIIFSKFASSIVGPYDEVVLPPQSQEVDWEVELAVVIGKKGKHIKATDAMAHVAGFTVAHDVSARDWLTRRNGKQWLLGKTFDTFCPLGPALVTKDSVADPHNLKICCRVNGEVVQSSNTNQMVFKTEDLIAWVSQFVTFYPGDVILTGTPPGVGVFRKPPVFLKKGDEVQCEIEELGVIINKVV
UniProt P07992: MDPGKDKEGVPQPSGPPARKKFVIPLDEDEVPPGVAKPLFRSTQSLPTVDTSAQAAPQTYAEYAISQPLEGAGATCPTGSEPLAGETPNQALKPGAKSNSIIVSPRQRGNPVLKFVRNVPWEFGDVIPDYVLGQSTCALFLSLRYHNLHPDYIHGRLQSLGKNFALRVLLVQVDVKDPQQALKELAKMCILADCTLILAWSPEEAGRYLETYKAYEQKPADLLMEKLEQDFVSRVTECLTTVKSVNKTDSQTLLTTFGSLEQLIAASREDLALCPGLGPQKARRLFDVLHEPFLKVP
UniProt Q8IV48: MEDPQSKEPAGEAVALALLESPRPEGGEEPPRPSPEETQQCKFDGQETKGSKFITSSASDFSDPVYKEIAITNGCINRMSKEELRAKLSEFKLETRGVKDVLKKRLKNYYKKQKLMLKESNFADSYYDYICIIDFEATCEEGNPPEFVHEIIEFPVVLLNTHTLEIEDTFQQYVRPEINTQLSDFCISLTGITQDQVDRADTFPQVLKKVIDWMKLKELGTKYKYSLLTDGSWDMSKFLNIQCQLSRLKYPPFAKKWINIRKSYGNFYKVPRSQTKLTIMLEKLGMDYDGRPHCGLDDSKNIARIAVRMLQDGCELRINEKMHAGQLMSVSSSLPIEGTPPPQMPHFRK

How the values were obtained:
Test in all cases: log2 fold change, soluble protein after heating vs DMSO (PISA); higher = thermal stabilisation; K562 cells, 10 uM, 30 min; active = over 0.2 and 3.5 SD of the protein, either way, in both replicates (recomputed)
[1] = compound: NC(=O)Nc1cc(-c2cccc(F)c2)sc1C(=O)N[C@H]1CCCNC1
Outline: (§1)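 Thermal stability values are relative to control samples and come from duplicates. They are expressed as log2 fold changes. For measurement, K562 cells (2×10^6 cells/mL) received 10 μM compound for 30 min, and aliquots were heated for 3 min over 48°C-58°C, pooled, and extracted at 4°C in PBS with 0.5% NP-40. Soluble protein, the supernatant after 21,000xg for 90 min, was quantified by TMTpro 16plex LC-MS/MS with equalised channel sums.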

[2] = compound: NC1(c2ccc(-c3nc4ccn5c(=O)[nH]nc5c4cc3-c3ccccc3)cc2)CCC1
Outline: as §1

[3] = compound: NCC(=O)Nc1ccc(-n2nc(C(F)(F)F)cc2-c2ccc3c(ccc4ccccc43)c2)cc1
Outline: as §1

[4] = compound: Nc1ccccc1NC(=O)c1ccc(CNC(=O)OCc2cccnc2)cc1 [entinostat]
Outline: as §1

[5] = compound: O=C(CCCCCCNC(=O)c1cnc(N(c2ccccc2)c2ccccc2Cl)nc1)NO [citarinostat]
Outline: as §1

[6] = compound: O=C(O)c1ccc2c(c1)nc(Nc1cccc(Cl)c1)c1ccncc12 [silmitasertib]
Outline: as §1

[7] = compound: O=C1NC(=O)C(c2cnc3ccccn23)=C1c1cn2c3c(cc(F)cc13)CN(C(=O)N1CCCCC1)CC2
Outline: as §1

[8] = compound: c1cc(OCCN2CCCCC2)cc(-c2n[nH]c3ccc(-c4nnc[nH]4)cc23)c1
Outline: as §1

[9] = compound: NC(=O)c1cnc(N[C@@H]2CCCC[C@@H]2N)nc1Nc1cccc(-n2nccn2)c1
Outline: as §1

[10] = compound: O=C(CCCCCCC(=O)Nc1ccccc1)NO [vorinostat]
Outline: as §1

Measured: log2 fold change

F10 (UniProt P00742)
inactive: [1] -0.058 | [2] -0.077 | [3] 0.066 | [4] 0.021 | [5] 0.09 | [6] 0.012 | [7] 0.071 | [8] 0.204

EPG5 (UniProt Q9HCE0)
inactive: [1] -0.214 | [4] 0.022 | [7] 0

EWSR1 (UniProt H7BY36)
inactive: [9] 0.081 | [2] 0.003 | [3] -0.005 | [5] -0.016 | [6] 0.124 | [7] -0.154 | [8] -0.022

EXO5 (UniProt Q9H790)
inactive: [1] -0.051 | [4] 0.004

ERI3 (UniProt H0Y4B0)
inactive: [1] -0.094 | [4] -0.069 | [5] -0.424 | [7] -0.765 | [8] -0.057

EPPK1 (UniProt P58107)
inactive: [1] 0.042 | [2] 0.113 | [3] -0.07 | [4] -0.202 | [10] 0.131 | [5] -0.119 | [6] 0.238 | [7] 0.238 | [8] -0.112

Retrieved one by one from above (four):
EXO5 (UniProt Q9H790)
inactive: [1] -0.051 | [4] 0.004

F10 (UniProt P00742)
inactive: [1] -0.058 | [2] -0.077 | [3] 0.066 | [4] 0.021 | [5] 0.09 | [6] 0.012 | [7] 0.071 | [8] 0.204

EWSR1 (UniProt H7BY36)
inactive: [9] 0.081 | [2] 0.003 | [3] -0.005 | [5] -0.016 | [6] 0.124 | [7] -0.154 | [8] -0.022

EPPK1 (UniProt P58107)
inactive: [1] 0.042 | [2] 0.113 | [3] -0.07 | [4] -0.202 | [10] 0.131 | [5] -0.119 | [6] 0.238 | [7] 0.238 | [8] -0.112

Carrying on:

FAM172A (UniProt Q8WUF8)
inactive: [1] 0.104 | [2] -0.063 | [3] 0.087 | [4] -0.097 | [10] -0.018 | [5] -0.065 | [6] -0.103 | [7] -0.056 | [8] 0.024

FAHD2B (UniProt Q6P2I3)
inactive: [9] -0.034 | [2] -0.147 | [5] 0.102 | [6] -0.149 | [7] -0.07 | [8] 0.006

ERCC1 isoform 3 (UniProt P07992)
inactive: [1] -0.339 | [4] -0.077

ERF (UniProt P50548)
inactive: [1] -0.53 | [4] -0.019 | [10] 0.023 | [7] -0.273

ESF1 (UniProt Q9H501)
inactive: [1] 0.002 | [4] 0.079 | [10] 0.123

ESYT2 (UniProt H7BXI1)
inactive: [1] 0.079 | [9] -0.136 | [2] -0.152 | [3] 0.056 | [4] -0.009 | [5] 0.043 | [6] -0.015 | [7] 0.21 | [8] -0.14

ERO1B (UniProt Q86YB8)
inactive: [1] 0 | [9] -0.095 | [2] -0.138 | [3] -0.072 | [4] 0.029 | [5] 0.071 | [6] -0.002 | [7] 0.016 | [8] 0.057

FAM135A (UniProt Q9P2D6)
inactive: [1] 0.069 | [3] -0.024 | [4] -0.03 | [7] -0.088

ETF1 isoform 2 (UniProt P62495)
inactive: [9] -0.202 | [3] -0.378 | [10] 0.12 | [5] 0.043 | [8] -0.439

F13A1 (UniProt P00488)
inactive: [2] -0.018 | [5] 0.025 | [6] 0.087 | [8] -0.068

FAAP20 isoform 2 (UniProt Q6NZ36)
inactive: [2] -0.133 | [10] 0.102 | [5] 0.136 | [6] 0.011 | [7] 0.032 | [8] -0.167

EVI5 isoform 2 (UniProt O60447)
inactive: [9] 0.163 | [3] -0.089 | [10] 0.259

F13B (UniProt P05160)
inactive: [3] -0.004

EPB41L5 (UniProt Q9HCM4)
inactive: [7] 0.017

ERMARD (UniProt Q5T6L9)
inactive: [2] 0.055 | [6] -0.052

FADS2 (UniProt O95864)
inactive: [10] 0.531

ESRRB isoform 1 (UniProt O95718)
inactive: [3] 0.036 | [5] -0.02 | [8] -0.038

FABP3 (UniProt P05413)
inactive: [9] 0.308 | [5] 0.248 | [8] -0.055

FAM117B (UniProt Q6P1L5)
inactive: [9] -0.159 | [3] 0.229 | [10] 0.059 | [5] -0.047 | [7] -0.144 | [8] 0.105

FADS1 (UniProt F5GYH4)
inactive: [3] -0.191

EPS8L1 (UniProt Q8TE68)
inactive: [7] 0.093

FAM174A (UniProt Q8TBP5)
inactive: [3] -0.167

EPC1 (UniProt Q9H2F5)
inactive: [2] 0.408 | [6] 0.391

ERAP2 (UniProt Q6P179)
inactive: [2] -0.148 | [6] -0.008 | [7] 0.024

FAM171A2 (UniProt A8MVW0)
inactive: [10] -0.04

FAM171A1 (UniProt Q5VUB5)
inactive: [9] 0.124 | [3] -0.039 | [10] 0.324 | [7] -0.217

FAM110A (UniProt Q9BQ89)
inactive: [10] 0.058 | [7] -0.15

EVA1B (UniProt Q9NVM1)
inactive: [2] -0.117 | [6] 0.111

F2RL3 (UniProt Q96RI0)
inactive: [9] 0.003 | [3] -0.085

EVI2B isoform 2 (UniProt P34910)
inactive: [3] 0.018

F2R (UniProt P25116)
inactive: [9] -0.024 | [3] -0.242 | [10] -0.066

FAM114A1 (UniProt Q8IWE2)
inactive: [2] -0.172 | [10] 0.027 | [6] -0.097 | [7] 0.233

FAM126B (UniProt Q8IXS8)
inactive: [9] -0.106 | [10] -0.202

FAM102B (UniProt Q5T8I3)
inactive: [3] 0.019 | [7] 0.02

FAM107B isoform 2 (UniProt Q9H098)
inactive: [3] -0.096 | [10] 0.047 | [7] -0.075

FAM160B2 (UniProt Q86V87)
inactive: [2] 0.138 | [10] 0.153 | [5] -0.164 | [6] 0.158 | [8] -0.074

EPHX2 (UniProt E5RI53)
inactive: [7] -0.058

FAM120B (UniProt Q96EK7)
inactive: [9] -0.434 | [10] 0.133 | [5] -0.106 | [8] -0.001

FAM122B isoform 2 (UniProt Q7Z309)
inactive: [2] 0.006 | [5] -0.149 | [6] -0.076 | [8] -0.054

FAM160A2 isoform 2 (UniProt Q8N612)
inactive: [2] 0.158 | [3] -0.26 | [10] -0.009 | [5] -0.154 | [6] 0.057 | [7] 0.026 | [8] 0.068

ERI1 (UniProt Q8IV48)
inactive: [2] 0.184 | [3] 0.095 | [10] 0.067 | [6] 0.084 | [7] 0.276

FAM178B (UniProt Q8IXR5)
inactive: [10] -0.15
